Results on 57 compounds are retold here after PubChem BioAssay AID1487 (National Center for Advancing Translational Sciences (NCATS), 2009).

The nature of the assay: qHTS Assay for Modulators of Lamin A Splicing. The settings on record: HeLa LMNA splicing GFP/RFP minigene ratio, 48 h. The method in brief: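 Read-out is the ratio of GFP to DsRed2 object intensity, acquired by 488 nm laser-scanning cytometry on HeLa lamin A-EGFP minigene reporter cells. Compound incubation 48 hrs at 37 °C in Opti-MEM with 2% FBS; DMSO 0.5% final.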
Setting [1] is: measured here: GFP splicing reporter channel.
[2] abbreviates: measured here: RFP viability control channel.

SMILES strings stand for the structures. The list shows a part of the results. The main result of the screen is listed elsewhere. These columns were measured beside it and carry no call. The list favours compounds with an active or inconclusive main result. Potencies come from curve fits of mixed quality, noted in brackets.

`CCOc1ccc(NS(=O)(=O)c2ccc3c(c2)CCN3C(=O)C2CCC2)cc1`: the AC50 (commonly the concentration giving half of the maximal activity seen) by setting is: under setting [1], 35.5 µM [rising, single point]; under setting [2], 35.5 µM [rising, single point].

Turning to `Cn1c(=NC(=O)C2=NNC(=O)CC2)sc2ccccc21`, the AC50 under setting [1] was 4.47 µM [rising, partial curve, poor fit].

For `CSc1nc2[nH]c3c(c2c2nnnn12)CCCC3`, the AC50 under setting [1] is 11.2 µM [rising, partial curve, poor fit] and the AC50 under setting [2] was 11.2 µM [rising, partial curve, poor fit].

Turning to `CCN1CCN(c2ccc(NC(=O)c3ccc4c(c3)[nH]c(=O)n4Cc3ccc(F)cc3)cc2)CC1`, the AC50 under setting [2] is 12.6 µM [rising, single point].

Consider `Nc1cc(N2CCCC2)ccc1[N+](=O)[O-]`, for which, under setting [2], the AC50 is 6.31 µM [falling, single point].

Regarding `CCn1cc(/C=C/C(=O)Nc2c(C)nn(Cc3ccccc3C)c2C)cn1`, the concentration at half-maximal activity (AC50) reads like this: under setting [1], 31.6 µM [rising, single point]; under setting [2], 31.6 µM [rising, single point].

For `Oc1ccc(N2CCN(c3ncnc4sc5c(c34)CCC5)CC2)cc1`, the concentration at half-maximal activity (AC50) runs as follows: under setting [1], 5.01 µM [rising, partial curve]; under setting [2], 11.2 µM [rising, partial curve].

For the compound `CCOC(=O)c1cc(C#N)c(SC)nc1-c1ccccc1`, under setting [1], the AC50 is 35.5 µM [rising, single point].

With `FC(F)(F)c1cccc(Sc2cc(C(F)(F)F)nc(-c3ccccn3)n2)c1`, the concentration at half-maximal activity (AC50) was 20 µM [falling, partial curve] under setting [1] and 31.6 µM [falling, single point] under setting [2].

`O=C(NC(=S)NNC(=O)c1ccc(Cl)cc1Cl)c1cccnc1`: the AC50 under setting [2] was 22.4 µM [rising, partial curve, poor fit].

For the compound `COCCCNc1ncnc2ccc(C)cc12`, the AC50 under setting [2] is 31.6 µM [rising, single point].

Consider `CCOc1ccc(N2CC(NC(=O)c3ccc(Cl)cc3)CC2=O)cc1` (stereo unspecified), for which, under setting [1], the AC50 was 6.31 µM [rising, partial curve, poor fit].

Regarding `CCNC(=O)C12CCC(C)(C(=O)O1)C2(C)C` (stereo unspecified), the AC50 under setting [1] is 35.5 µM [rising, single point].

In the case of `Cc1ccc(S(=O)(=O)Nc2nc3ccccc3nc2Nc2cccc(S(=O)(=O)N3CCCC3)c2)cc1`, the half-maximal activity concentration (AC50) by setting is: under setting [1], 0.00447 µM [falling, full curve, poor fit]; under setting [2], 2.82 µM [falling, full curve, poor fit].

As to `O=c1c(/C=N/O)coc2ccc3ccccc3c12`, under setting [2], the AC50 was 6.31 µM [falling, partial curve, poor fit].

On to `Cc1nc(NC(C)c2ccccc2)c2c3c(sc2n1)CCC3` (stereo unspecified), for which the concentration at half-maximal activity (AC50) under setting [2] is 35.5 µM [rising, single point].

Consider `O=C(CCCN1C(=O)/C(=C/c2cccc(Br)c2)SC1=S)Nc1ccccn1`, for which the half-maximal activity concentration (AC50) under setting [2] is 7.94 µM [rising, partial curve, poor fit].

On to `CCc1cc2c(=O)nc3n(c2s1)Cc1ccccc1/C3=C(/O)c1cccc([N+](=O)[O-])c1`, for which the AC50 under setting [2] is 10 µM [rising, partial curve, poor fit].

In the case of `O=C(CCNc1cc(Cl)cc(Cl)c1)c1cccs1`, under setting [1], the half-maximal activity concentration (AC50) was 20 µM [falling, single point].

Consider `Cc1cccc(N(CC(=O)NC2CCCC2)C(=O)c2nsc(Cl)c2Cl)c1C`, for which, under setting [1], the concentration at half-maximal activity (AC50) was 0.1 µM [rising, partial curve, poor fit].

Consider `NC(CO)(CO)CO`, for which the half-maximal activity concentration (AC50) is, setting by setting: under setting [1], 35.5 µM [falling, single point]; under setting [2], 0.355 µM [falling, partial curve, poor fit].

With `N#Cc1nc(-c2cccc(Cl)c2)oc1NCc1cccnc1`, the half-maximal activity concentration (AC50) by setting is: under setting [1], 12.6 µM [rising, single point]; under setting [2], 11.2 µM [rising, partial curve].

Regarding `CCCNC(=O)CN1C(=O)NC(CCc2ccccc2)C1=O` (stereo unspecified), the half-maximal activity concentration (AC50) under setting [2] was 3.16 µM [rising, single point].

Consider `COc1cc2c(cc1OC)C(c1cc3ccccc3oc1=O)=NC(C)(C)C2`, for which the half-maximal activity concentration (AC50) under setting [2] is 15.8 µM [rising, partial curve].

Regarding `COc1cc(SC#N)ccc1N=Cc1c(C)[nH]n(-c2ccc(C)c(C)c2)c1=O`, the AC50 under setting [1] is 25.1 µM [falling, partial curve] and the half-maximal activity concentration (AC50) under setting [2] is 22.4 µM [falling, partial curve, poor fit].

For the compound `COc1cc(OC)cc(-c2nnc(Nc3nc4c(F)cccc4s3)o2)c1`, the AC50 under setting [1] is 2.82 µM [rising, partial curve] and the half-maximal activity concentration (AC50) under setting [2] was 3.16 µM [rising, single point].

Consider `CCOc1ccc(CCNC(=O)Cn2c(-c3cccs3)cc3ccccc32)cc1`, for which the half-maximal activity concentration (AC50) reads like this: under setting [1], 11.2 µM [rising, single point]; under setting [2], 12.6 µM [rising, partial curve].

`C/C(=N\Nc1ccc([N+](=O)[O-])cc1)c1ccc(-n2nncc2C)cc1`: the half-maximal activity concentration (AC50) under setting [2] was 35.5 µM [rising, single point].

With `Cc1onc(-c2ccccc2Cl)c1C(=O)N/N=C(\N)COc1ccc(Cl)cc1`, under setting [2], the AC50 was 28.2 µM [rising, single point].

With `CCOCCCNS(=O)(=O)c1ccc(NC(=O)c2ccc([N+](=O)[O-])cc2Cl)cc1`, the concentration at half-maximal activity (AC50) was 35.5 µM [rising, single point] under setting [1] and 31.6 µM [rising, single point] under setting [2].

Turning to `COc1ccc(C)cc1NC(=O)CSc1nnc(-c2cc3cccc(OC)c3o2)n1N`, the concentration at half-maximal activity (AC50) under setting [1] was 25.1 µM [rising, single point].

For the compound `C=C(C)CC(c1ccccc1)N(C(C)=O)c1ccco1` (stereo unspecified), the AC50 under setting [2] is 6.31 µM [falling, partial curve].

For the compound `Cc1ccc(NC(=S)N(CCCN(C)C)Cc2cc3cc4c(cc3[nH]c2=O)OCO4)c(C)c1`, the AC50 under setting [2] is 0.0251 µM [falling, full curve, poor fit].

For `Cc1cccc(/C=C/C(=O)c2ccc(NC3=NCCCS3)cc2)c1`, the AC50 is, setting by setting: under setting [1], 12.6 µM [falling, partial curve]; under setting [2], 35.5 µM [falling, single point].

Take `O=[N+]([O-])c1cc(Cl)cc(/C=N/NC(=S)Nc2cc(S(=O)(=O)N3CCOCC3)ccc2Cl)c1O`: the AC50 reads like this: under setting [1], 35.5 µM [falling, single point]; under setting [2], 14.1 µM [falling, partial curve, poor fit].

Regarding `CCOc1ccc(-n2ccnc2SCC(=O)Nc2cc(C)ccc2C)cc1`, under setting [1], the AC50 is 28.2 µM [falling, partial curve].

For the compound `COc1ccc(OC)c(S(=O)(=O)Nc2ccc(O)c3ccccc23)c1`, the AC50 under setting [1] is 35.5 µM [falling, single point].

As for `COc1cc(N=Cc2c(O)[nH]c3ccccc23)cc(OC)c1OC`, the concentration at half-maximal activity (AC50) under setting [2] is 20 µM [rising, partial curve].

With `COc1cccc(-n2c(SCc3cccc(C)c3)nc3c([nH]c4ccccc43)c2=O)c1`, the AC50 runs as follows: under setting [1], 12.6 µM [falling, partial curve]; under setting [2], 17.8 µM [falling, partial curve, poor fit].

With `COc1ccccc1NC(=O)c1cc2ccc(O)cc2o/c1=N\O`, the AC50 under setting [2] was 15.8 µM [rising, single point].

Consider `CCCc1nc(SCC(=O)N2c3ccccc3CC2C)c2c(C)c(C)sc2n1` (stereo unspecified), for which the AC50 under setting [2] was 3.55 µM [rising, single point].

`COc1cc(C(=O)OC2CCCCC2=O)cc(OC)c1C` (stereo unspecified): the concentration at half-maximal activity (AC50) under setting [2] is 3.98 µM [rising, full curve, poor fit].

In the case of `COCn1c(COc2ccc3ccccc3c2)nc2ccccc21`, the AC50 under setting [2] is 31.6 µM [rising, single point].

In the case of `Nc1nc(CSC(=S)N2CCN(c3ccccc3)CC2)nc(Nc2ccc(F)cc2)n1`, the AC50 runs as follows: under setting [1], 10 µM [rising, single point]; under setting [2], 22.4 µM [rising, single point].

`CCOc1ccccc1NC(=O)COC(=O)CC(C)(C)CC1=NS(=O)(=O)c2ccccc2N1`: under setting [2], the concentration at half-maximal activity (AC50) was 0.0355 µM [rising, full curve, poor fit].

On to `N#Cc1ccc(-n2c(-c3ccccc3)nnc2-c2ccccc2)cc1C#N`, for which, under setting [2], the concentration at half-maximal activity (AC50) is 28.2 µM [rising, single point].

For `CCOC(=O)c1c(-c2ccc(OC)cc2)csc1/N=C/C1=C(O)CCCC1=O`, the AC50 reads like this: under setting [1], 10 µM [rising, partial curve]; under setting [2], 12.6 µM [rising, partial curve].

Take `CC(NC(=O)C12CC3CC(CC(C3)C1)C2)C(=O)N/N=C/C1=C(N2CCOCC2)C(=C\c2ccccc2)/CC1` (stereo unspecified): under setting [2], the concentration at half-maximal activity (AC50) was 20 µM [rising, partial curve, poor fit].

With `Cc1ncc[nH]1`, the AC50 under setting [1] is 2.51 µM [falling, single point].

On to `Cc1ccc(-n2c(C)cc(C(=O)CSc3nnnn3C)c2C)cc1`, for which the half-maximal activity concentration (AC50) under setting [2] is 12.6 µM [rising, partial curve].

`CCCCNC(=S)Nc1ccc(C(F)(F)F)cc1`: the concentration at half-maximal activity (AC50) under setting [1] is 31.6 µM [falling, partial curve].

On to `COc1ccc(NC(=O)CSc2nnc(-c3ccncc3)n2-c2ccccc2)cc1`, for which, under setting [1], the AC50 was 5.62 µM [rising, single point].

Consider `Cn1c(CCc2ccccc2)n[nH]c1=S`, for which the concentration at half-maximal activity (AC50) was 35.5 µM [falling, single point] under setting [1] and 35.5 µM [falling, single point] under setting [2].

With `O=C(CSc1n[nH]c(-c2ccc(F)cc2)n1)N1CCN(c2ccc(F)cc2)CC1`, the AC50 under setting [1] was 0.447 µM [rising, full curve, poor fit].

As to `CC(=O)COc1ccc2c(-c3cccc([N+](=O)[O-])c3)cc(=O)oc2c1`, the concentration at half-maximal activity (AC50) under setting [2] was 8.91 µM [rising, partial curve, poor fit].

Regarding `CCS(=O)(=O)n1nc(-c2ccc(Cl)cc2)nc1SCc1ccccc1`, the concentration at half-maximal activity (AC50) under setting [1] was 31.6 µM [rising, single point] and the AC50 under setting [2] was 35.5 µM [rising, single point].

For the compound `Cc1ccc(S(=O)(=O)N(C)CC(=O)OCC(=O)N2CCCC2=O)cc1`, the AC50 under setting [2] was 6.31 µM [rising, partial curve].
